According to article PMC10539329, “NLRP6 potentiates PI3K/AKT signalling by promoting autophagic degradation of p85α to drive tumorigenesis” (Nature Communications, 2023):
These are yes or no findings as the source states them, for the method shown. In cells and extracts the contact can be indirect. A yes stands for co-enrichment or nearness to the bait. Other partners may have been found. Tags and fused reporters may be left off the sequences shown.

The chains behind the UniProt entries cited, without tags or fusion partners.
UniProt P27986: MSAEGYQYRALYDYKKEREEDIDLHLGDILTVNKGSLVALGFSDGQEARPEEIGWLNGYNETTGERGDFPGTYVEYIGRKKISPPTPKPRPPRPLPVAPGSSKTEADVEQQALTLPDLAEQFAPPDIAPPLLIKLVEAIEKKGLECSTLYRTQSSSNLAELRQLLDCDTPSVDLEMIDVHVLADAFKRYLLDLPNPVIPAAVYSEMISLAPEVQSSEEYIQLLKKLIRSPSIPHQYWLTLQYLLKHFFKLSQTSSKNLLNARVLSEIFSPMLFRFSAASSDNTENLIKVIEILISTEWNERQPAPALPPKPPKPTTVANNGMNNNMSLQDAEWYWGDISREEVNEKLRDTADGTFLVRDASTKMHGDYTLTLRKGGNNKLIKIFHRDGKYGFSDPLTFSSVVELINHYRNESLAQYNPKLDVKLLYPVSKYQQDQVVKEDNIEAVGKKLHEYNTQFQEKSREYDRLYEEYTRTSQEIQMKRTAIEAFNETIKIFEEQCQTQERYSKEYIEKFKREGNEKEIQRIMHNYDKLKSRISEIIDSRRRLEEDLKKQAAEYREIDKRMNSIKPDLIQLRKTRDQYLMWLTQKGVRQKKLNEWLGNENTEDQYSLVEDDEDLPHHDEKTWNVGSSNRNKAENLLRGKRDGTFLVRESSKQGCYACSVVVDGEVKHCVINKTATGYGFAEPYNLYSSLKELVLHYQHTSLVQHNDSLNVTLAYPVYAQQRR

Target: T1, NLRP6-APEX2 fusion protein (human) (UniProt P59044)
T1 sequence: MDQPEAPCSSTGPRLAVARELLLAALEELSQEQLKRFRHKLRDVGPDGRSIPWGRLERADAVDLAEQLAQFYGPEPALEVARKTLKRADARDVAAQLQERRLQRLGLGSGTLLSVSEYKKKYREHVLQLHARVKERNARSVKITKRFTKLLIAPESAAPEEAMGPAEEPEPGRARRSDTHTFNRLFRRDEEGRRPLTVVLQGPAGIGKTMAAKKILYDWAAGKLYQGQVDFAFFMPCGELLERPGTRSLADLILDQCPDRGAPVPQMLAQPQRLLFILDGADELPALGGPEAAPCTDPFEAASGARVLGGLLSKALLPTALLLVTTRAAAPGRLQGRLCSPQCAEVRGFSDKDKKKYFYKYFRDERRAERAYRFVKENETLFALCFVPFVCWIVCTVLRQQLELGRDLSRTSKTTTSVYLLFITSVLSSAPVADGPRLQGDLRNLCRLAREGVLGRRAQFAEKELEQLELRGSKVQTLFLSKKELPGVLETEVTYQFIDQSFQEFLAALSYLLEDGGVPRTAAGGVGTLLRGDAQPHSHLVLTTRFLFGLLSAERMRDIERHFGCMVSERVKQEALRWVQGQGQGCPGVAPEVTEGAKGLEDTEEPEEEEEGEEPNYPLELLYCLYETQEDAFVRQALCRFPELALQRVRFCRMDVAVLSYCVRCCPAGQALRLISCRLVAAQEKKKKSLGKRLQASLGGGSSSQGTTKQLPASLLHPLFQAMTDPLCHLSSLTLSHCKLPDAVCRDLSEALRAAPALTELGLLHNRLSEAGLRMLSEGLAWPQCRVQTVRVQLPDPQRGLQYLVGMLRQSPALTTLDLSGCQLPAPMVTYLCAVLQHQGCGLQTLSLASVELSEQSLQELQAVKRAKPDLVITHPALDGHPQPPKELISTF
Assay: proximity labelling; NLRP6-APEX2 in living cells, biotin phenol 30 min, 2 mM hydrogen peroxide 1 min, streptavidin beads, LC-MS/MS

With “endogenous p85α (from UniProt P27986 1-724)” the binding was “binds”.
